The results in this text go back to the supplement of paper PMC8256030.

Several values for one entry are separate records, joined by “and”; a condition that tells them apart may be missing. Equal values may be shown once. Where a name gives a salt, the structure may show the parent alone. Some of the results follow. This data set is noisy: repeats of one test often differ as much as different tests do.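 HEK293T cells were given each compound shortly before transfection with a reporter in which red mCherry is followed by the SARS-CoV-2 frameshift element and then GFP in the −1 frame, so GFP appears only after frameshifting.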

The subject of this assay is SARS-CoV-2 -1 PRF reporter mCherry-FSE-GFP(-1). The assay is described as follows: mCherry (red) intensity as percent of control; higher = higher upstream reporter expression. To be noted: 10 µM; 24 h; HEK293T.
On to `Nc1nc(CC(=O)Nc2ccc(CCNC[C@H](O)c3ccccc3)cc2)cs1` [Mirabegron], for which the mCherry was 89.8%.
With `NC(=O)c1cccnc1` [nicotinamide] the figure was 91.9%; with `Nc1nc(=O)c2c([nH]1)NC[C@@H](CNc1ccc(C(=O)N[C@@H](CCC(=O)O)C(=O)O)cc1)N2` [Tetrahydrofolate], 97.2%; with `CC[C@H]1OC(=O)[C@H](C)[C@@H](O[C@H]2C[C@@](C)(OC)[C@@H](O)[C@H](C)O2)[C@H](C)[C@@H](O[C@@H]2O[C@H](C)C[C@H](N(C)C)[C@H]2O)[C@](C)(O)C[C@@H](C)[C@@H]2N[C@@H](COCCOC)O[C@H]([C@H]2C)[C@]1(C)O` [dirithromycin], 93% and 103% and 101%.
The compound `COC(=S)NCCn1c([N+](=O)[O-])cnc1C` [carnidazole] yielded a mCherry of 96.5%.
`CN1C(C(=O)Nc2ccccn2)=C(O)c2ccccc2S1(=O)=O` [Piroxicam] registered a mCherry of 109%.
With `CCN(CC)CCCCCCNc1cc(OC)cc2c(C)ccnc12` [sitamaquine], the mCherry worked out at 77%.
Take `O=C(O)CCCC[C@@H]1SC[C@@H]2NC(=O)N[C@@H]21` [biotin]: the mCherry was 103% and 97.6%.
Compound `COCC1=C(C(=O)OC(C)OC(=O)OC(C)C)N2C(=O)[C@@H](NC(=O)/C(=N\OC)c3csc(N)n3)[C@H]2SC1` (stereo partly drawn) registered a mCherry of 96.7%.
`CCCCCCCCCCCC[N+](C)(C)CCOc1ccccc1` [domiphen] came in with a mCherry of 59.4%.
Turning to `CN1C(=O)CC(c2ccccc2)C1=O` (stereo not drawn) [phensuximide], the mCherry stood at 141%.
The compound `Cc1ccc(S(=O)(=O)NC(=O)NN2CCCCCC2)cc1` [Tolazamide] yielded a mCherry of 83.1%.
`Nc1nc(=O)n([C@@H]2O[C@H](CO)[C@@H](O)[C@@H]2F)cc1I` [fiacitabine] registered a mCherry of 99.4%.
To `C[C@@H](O)[C@@H]1NC(=O)[C@H](CCCCN)NC(=O)[C@@H](Cc2c[nH]c3ccccc23)NC(=O)[C@H](Cc2ccccc2)NC(=O)[C@@H](NC(=O)[C@H](N)Cc2ccccc2)CSSC[C@@H](C(=O)N[C@H](CO)[C@@H](C)O)NC1=O` [Sandostatin] belongs 117%.
With `O=C(O)CCC(=O)c1ccc2oc3ccccc3c2c1` [furobufen] the figure was 73.8%; with `Cc1cc2c(cc1S(N)(=O)=O)S(=O)(=O)CCC2` [meticrane], 92.1%.
As to `CCN(CC)CCNC(=O)c1ccc(N)cc1` [procainamide], the mCherry was 90% and 87.5%.
In turn, `Nc1ccc(C(=O)O)c(O)c1` came in with a mCherry of 79.1%.
In turn, `CCCC(=O)OCOC(=O)C1=C(C)NC(C)=C(C(=O)OC)C1c1cccc(Cl)c1Cl` (stereo not drawn) [Clevidipine] returned a mCherry of 91.2%.
With `CCC[C@@H]1C[C@@H](C(=O)N[C@@H]([C@H]2O[C@H](SC)[C@H](O)[C@@H](O)[C@H]2O)[C@@H](C)O)N(C)C1` [Lincocin] the figure was 101%.
On to `N[C@@H](CSCCCO)C(=O)O` [fudosteine], for which the mCherry was found to be 103%.
In turn, `Cc1c(N(C)CS(=O)(=O)O)c(=O)n(-c2ccccc2)n1C` [metamizole sodium] registered a mCherry of 104%.
On to `N[C@@H](CO)C(=O)O` [serine], for which the mCherry stood at 88.7%.
`CO[C@H]1/C=C/O[C@@]2(C)Oc3c(C)c(O)c4c(O)c(cc(O)c4c3C2=O)NC(=O)/C(C)=C\C=C\[C@H](C)[C@H](O)[C@@H](C)[C@@H](O)[C@@H](C)[C@H](OC(C)=O)[C@@H]1C` [rifamycin] yielded a mCherry of 101%.
To `CCC[C@@H]1C[C@@H](C(=O)N[C@@H]([C@H]2O[C@H](SC)[C@H](O)[C@@H](O)[C@H]2O)[C@H](C)Cl)N(C)C1` [Clindamycin·HCl] belongs 219%.
On to `C=C(C)Cn1c(N)cc(=O)n(C)c1=O` [amisometradine], for which the mCherry is 63.2%.
On to `CC(C)n1c(/C=C/[C@@H](O)C[C@@H](O)CC(=O)O)c(-c2ccc(F)cc2)c2ccccc21`, for which the mCherry came to 120%.
With `NC(=O)Nc1ccc(S(=O)(=O)c2ccc(N)cc2)cc1` [amidapsone] the figure was 75.8%; with `CCN(CC)CCOC(=O)N(c1ccccc1)c1ccccc1` [dicarfen], 96.5%; with `C[C@]12CCC3=C4CCC(=O)C=C4CC[C@H]3[C@@H]1CC[C@@]2(O)CC#N` [dienogest], 102%.
In the case of `CC[C@H]1OC(=O)[C@H](C)[C@@H](O[C@H]2C[C@@](C)(OC)[C@@H](O)[C@H](C)O2)[C@H](C)[C@@H](O[C@@H]2O[C@H](C)C[C@H](N(C)C)[C@H]2O)[C@](C)(O)C[C@](C)(F)C(=O)[C@H](C)[C@@H](O)[C@]1(C)O` [flurithromycin], the mCherry is 120%.
To `C/C(=C\C(=O)O)C1CCCCC1` [cicrotoic acid] belongs 96.9%; to `Nc1ccn([C@@H]2O[C@H](CO)[C@@H](O)C2(F)F)c(=O)n1` [gemcitabine], 22.4%.
